These results are taken from publication PMC7878818.

The chains behind the UniProt entries cited, without tags or fusion partners.
UniProt Q9BUA3: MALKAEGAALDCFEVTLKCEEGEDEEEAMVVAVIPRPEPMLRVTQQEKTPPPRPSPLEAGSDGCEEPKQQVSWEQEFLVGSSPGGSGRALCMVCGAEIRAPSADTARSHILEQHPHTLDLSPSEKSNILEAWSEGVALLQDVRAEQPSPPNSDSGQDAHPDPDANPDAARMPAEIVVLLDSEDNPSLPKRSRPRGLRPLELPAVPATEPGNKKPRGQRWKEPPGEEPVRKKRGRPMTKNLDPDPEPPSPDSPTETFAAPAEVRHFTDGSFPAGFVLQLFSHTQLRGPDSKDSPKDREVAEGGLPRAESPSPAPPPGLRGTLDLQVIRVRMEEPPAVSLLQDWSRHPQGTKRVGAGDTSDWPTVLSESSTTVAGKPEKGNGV
UniProt Q99865: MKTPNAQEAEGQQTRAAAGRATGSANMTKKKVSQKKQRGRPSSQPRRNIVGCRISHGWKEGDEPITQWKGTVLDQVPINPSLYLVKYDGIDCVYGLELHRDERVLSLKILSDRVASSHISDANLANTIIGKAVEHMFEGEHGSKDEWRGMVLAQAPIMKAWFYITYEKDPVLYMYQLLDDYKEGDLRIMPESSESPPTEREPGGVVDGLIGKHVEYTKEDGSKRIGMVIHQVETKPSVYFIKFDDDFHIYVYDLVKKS
UniProt Q9BPZ2: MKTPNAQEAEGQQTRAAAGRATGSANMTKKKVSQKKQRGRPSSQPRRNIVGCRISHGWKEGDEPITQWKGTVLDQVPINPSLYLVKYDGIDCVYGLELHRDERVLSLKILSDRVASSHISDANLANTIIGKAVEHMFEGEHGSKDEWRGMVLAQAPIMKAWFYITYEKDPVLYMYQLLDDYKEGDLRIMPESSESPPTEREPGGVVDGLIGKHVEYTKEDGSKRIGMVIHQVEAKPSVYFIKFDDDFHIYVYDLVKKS
UniProt Q5JUX0: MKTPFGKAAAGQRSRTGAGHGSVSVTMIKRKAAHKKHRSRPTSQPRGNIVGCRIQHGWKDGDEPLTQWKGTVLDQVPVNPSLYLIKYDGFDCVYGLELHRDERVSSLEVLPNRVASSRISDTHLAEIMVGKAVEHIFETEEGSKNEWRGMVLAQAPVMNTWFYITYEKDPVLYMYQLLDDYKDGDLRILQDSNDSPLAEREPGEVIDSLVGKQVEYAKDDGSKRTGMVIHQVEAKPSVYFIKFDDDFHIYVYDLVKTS

These are yes or no findings as the source states them, for the method shown. Binding seen in cells or lysates may run through a third protein. Some entries that bind do so weakly or less than the wild type.

This assay concerns the target C11orf84 (wild type, tagged, expressed in HEK293T cells) (human) (UniProt Q9BUA3). Put plainly: co-IP; HEK293T co-transfected with Flag- and Myc-tagged plasmids; NP40 buffer (50 mM Tris pH 7.5, 150 mM NaCl, 1 mM EDTA, 1% NP40); anti-Flag M2 beads, 1 h; immunoblot. A general note: In western blotting, separated proteins are transferred to a membrane and probed.
With Spindlin2A (from UniProt Q99865 1-258), the binding result was “binds”. On to Spindlin2B (from UniProt Q9BPZ2 1-258), for which the binding entry was “binds”. Turning to Spindlin3 (from UniProt Q5JUX0 1-258), the binding entry was “binds”.
